Data taken from patent US20260169011A1, “METHODS AND COMPOSITIONS FOR PROVIDING CUSTOMIZED NUTRITIONAL SUPPLEMENTS” (Vibrant Holdings LLC, priority 2023, published 2026).
For at least one compound, name, drawing or mass did not settle the structure.

Test: Zone Approach: nutrient zone (Zone 1-5), target nutrient zone and follow-up zone
Assay type: in vivo, human
Conditions: Example 4: person three bodybuilder, Zone Approach, CB followed for three months; named nutrients are the exceptions that did not reach the TNZ
From the text: The second exemplary approach includes determining nutrient zones, and thus is referred to as the “Zone Approach.” According to some embodiments, the nutrient reference range for individuals can be divided into a number of zones, each indicating a nutrient wellness level. […] In some embodiments, for a given nutrient, each zone is associated with a specific multiplication factor, which can be used to determine the appropriate dosage for the CB. A few exemplary methods following this Zone Approach are further described hereinafter. […] Based on the assessment results, the current zone for each nutrient is determined at step 420a. […] In the next, the Target Nutrient Zone (TNZ) to which the individual's each nutrient level is to be optimized is determined at step 430. […] In some embodiments, the determined TNZ is used to determine the multiplication factor used to adjust the starting dosage at step 440a, resulting in the CB dosage for each nutrient. In various embodiments, the multiplication factor is a fixed constant value, previously determined for a nutrient when moving from a first zone to a second zone. […] At step 450a, the CB with the determined nutrient dosages is administered to the individual for a predefined period. […] In some embodiments, based on the results from the follow-up tests, it is further determined whether the dosage of the CB for a nutrient requires adjustment. […]

## CC/C=C\C/C=C\C/C=C\C/C=C\C/C=C\CCCCCC(=O)O [DPA, docosapentaenoic acid]
  nutrient levels reaching their TNZ at follow-up testing: supposed to reach the higher Zone 5
